Consider one sequence from PMC7515738.

Chains of the proteins cited; added tags and fusions are not shown.
UniProt P60842, whole entry, stated change not applied: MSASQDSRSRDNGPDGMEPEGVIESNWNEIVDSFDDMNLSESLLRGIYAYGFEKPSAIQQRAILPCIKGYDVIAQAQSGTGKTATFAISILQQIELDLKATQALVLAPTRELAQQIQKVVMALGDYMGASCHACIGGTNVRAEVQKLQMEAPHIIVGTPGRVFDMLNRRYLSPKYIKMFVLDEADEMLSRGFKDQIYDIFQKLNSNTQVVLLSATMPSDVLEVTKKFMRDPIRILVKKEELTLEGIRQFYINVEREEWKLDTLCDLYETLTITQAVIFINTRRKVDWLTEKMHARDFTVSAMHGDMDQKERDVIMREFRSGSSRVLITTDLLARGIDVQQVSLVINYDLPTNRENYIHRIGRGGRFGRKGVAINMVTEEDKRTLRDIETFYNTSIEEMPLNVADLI

Data set [1] has as its target eIF4A1 T242 HippR variant (UniProt P60842). The data set is described as follows: fluorescence polarization. The following applies: FP: 1 uM recombinant protein, FAM-poly r(AG)8, vehicle (0.1% DMSO) or Hipp, 30 min, protein details: His6. (Polarisation of emitted light reports the rotation of a fluorescent probe.)
Another data set addresses eIF4A1 wt (UniProt P60842). The data set is described as follows: fluorescence polarization. The following applies: hippuristanol, 1 uM protein, RNA binding inhibited, FP: 1 uM recombinant protein, FAM-poly r(AG)8, vehicle (0.1% DMSO) or Hipp, 30 min, protein details: His6.

For at least one entry, the source does not settle the construct or the ends of the probe. For part of these data: The comparison behind a weaker result is the experiment's own reference, which may not be listed here.

For AGAGAGAGAGAGAGAG [poly r(AG)8], the binding result in data set [1] (hippuristanol, 1 uM protein, not inhibited) is “binds”; in data set [1] (no Hipp, similar to wt) it was “binds”; in the data set with eIF4A1 wt, “binds more weakly”.
